PubChem BioAssay AID652259 – Drosophila RNAi Screening Center, 2013

Screen: 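Identify new Wingless signalling regulators in fly cells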 (primary screen)
System: Drosophila clone 8 imaginal disc epithelial cells
Reagent: long dsRNA against Drosophila genes
Treatment: pathway stimulated by co-transfected Wingless expression plasmid
Detection: 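Firefly luciferase from a tcf-site Wingless reporter, measured alongside co-transfected Renilla luciferase that tracks transfection; pathway stimulated by a Wingless plasmid; the firefly-to-Renilla ratio is not deposited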
Scale: firefly reporter light: higher = more Wg reporter light, before normalisation; Renilla control light: higher = more transfected or surviving cells
Rule for the call: 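a knock-down is a candidate when at least two out of four statistical tests show it departing from its plate mean; one test alone signals a weak candidate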
Meaning of the calls: active = candidate regulator (raises or lowers reporter); inactive = not a candidate
In all, the deposit lists about 22,000 reagents; this is a random part of those with a known target gene and a result. Of all reagents, 233 (1.1%) got an active call. 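Light values are raw, unnormalised plate reads; the ratio scores behind the reporter calls were not deposited.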 A plus sign joins genes that one reagent is predicted to hit. The record does not give: the amount of reagent, the time to read-out, the dose of the treatment.

The opening 6 entries as a preview:
reporter change call, replicate 1 | firefly reporter light, replicate 1 | firefly reporter light, replicate 2 | Renilla control light, replicate 1 | Renilla control light, replicate 2 | Outcome | target gene | dsRNA
– | 14533 | – | 7549 | – | inactive | CG31643 | DRSC00906
– | 3.71e5 | 3.65e5 | 1.49e5 | 1.53e5 | inactive | CG31021 | DRSC22319
– | 19995 | – | 3856 | – | inactive | Naus (Nausicaa) | DRSC06011
Wg reporter activity raised | 10816 | – | 1811 | – | inactive | Naus (Nausicaa) | DRSC06469
– | 2048 | – | 517 | – | inactive | alpha-Est4aPsi (pseudo) | DRSC12473
– | 992 | 8456 | 826 | 2876 | inactive | CG10467 | DRSC09728

The list itself, from the start:
reporter change call, replicate 1 | firefly reporter light, replicate 1 | firefly reporter light, replicate 2 | Renilla control light, replicate 1 | Renilla control light, replicate 2 | Outcome | target gene | dsRNA
– | 14533 | – | 7549 | – | inactive | CG31643 | DRSC00906
– | 3.71e5 | 3.65e5 | 1.49e5 | 1.53e5 | inactive | CG31021 | DRSC22319
– | 19995 | – | 3856 | – | inactive | Naus (Nausicaa) | DRSC06011
Wg reporter activity raised | 10816 | – | 1811 | – | inactive | Naus (Nausicaa) | DRSC06469
– | 2048 | – | 517 | – | inactive | alpha-Est4aPsi (pseudo) | DRSC12473
– | 992 | 8456 | 826 | 2876 | inactive | CG10467 | DRSC09728
– | 21020 | – | 10897 | – | inactive | CG10347 | DRSC19352
– | 3434 | – | 1197 | – | inactive | Polr3D (RNA polymerase III subunit D) | DRSC10485
– | 20224 | – | 4304 | – | inactive | thw (thawb) | DRSC12552
– | 6544 | – | 3153 | – | inactive | IntS12 (Integrator 12) | DRSC15818
– | 5144 | 8681 | 1872 | 2711 | inactive | Nelf-A (Negative elongation factor A) | DRSC15903
– | 21916 | – | 8859 | – | inactive | CG33642 | DRSC01325
– | 7777 | – | 1850 | – | inactive | CG10663 | DRSC09770
– | 9043 | – | 2361 | – | inactive | Cad99C (Cadherin 99C) | DRSC15050
– | 2153 | 8177 | 960 | 2675 | inactive | Cad99C (Cadherin 99C) | DRSC16317
– | 7664 | – | 3203 | – | inactive | armi (armitage) | DRSC08193
– | 3328 | 9099 | 1015 | 3603 | inactive | CG13795 | DRSC02299
– | 3144 | 6621 | 1349 | 2660 | inactive | CG15358 | DRSC00388
– | 4000 | – | 1893 | – | inactive | Su(var)3-3 (Suppressor of variegation 3-3) | DRSC10250
– | 4180 | 8874 | 1172 | 3402 | inactive | CG4577 | DRSC00658
– | 3584 | – | 1251 | – | inactive | svp (seven up) | DRSC12899
Wg reporter activity raised | 14823 | – | 1696 | – | active | svp (seven up) | DRSC15311
– | 24624 | – | 6299 | – | inactive | svp (seven up) | DRSC17075
– | 10681 | – | 3739 | – | inactive | Cog3 (Component of oligomeric golgi complex 3) | DRSC00585
– | 16360 | – | 4825 | – | inactive | Cep97 (Centrosomal protein 97kDa) | DRSC00637
– | 13762 | – | 4181 | – | inactive | Mtpbeta (Mitochondrial trifunctional protein beta subunit) | DRSC04663
– | 11485 | – | 4727 | – | inactive | TM4SF (Transmembrane 4 superfamily) | DRSC04661
– | 16323 | – | 9011 | – | inactive | CG4020 | DRSC18337
– | 5897 | – | 2344 | – | inactive | CG43897 | DRSC10173
Wg reporter activity raised | 11655 | – | 1472 | – | active | CG43897 | DRSC10965
– | 8550 | – | 3965 | – | inactive | CG43897 | DRSC10967
– | 1.01e6 | 9.68e5 | 1.54e5 | 72856 | inactive | CG43897 | DRSC21583
– | 11418 | – | 12679 | – | inactive | CG5715 | DRSC15860
– | 3049 | 8778 | 1593 | 3549 | inactive | CG4271 | DRSC00649
– | 8131 | – | 3316 | – | inactive | CG18682 (retired record) | DRSC15373
– | 6208 | – | 2934 | – | inactive | CG18682 (retired record) | DRSC15374
– | 23213 | 5.28e5 | 6892 | 45123 | inactive | CG42586 + CG31775 | DRSC01413
– | 3349 | 7563 | 660 | 2716 | inactive | CG4198 | DRSC18354
– | 14201 | – | 7975 | – | inactive | Or13a (Odorant receptor 13a) | DRSC20265
– | 2065 | 8354 | 924 | 2049 | inactive | CG9643 | DRSC00722
– | 7393 | – | 3895 | – | inactive | Cpr49Ag (Cuticular protein 49Ag) | DRSC07203
– | 5585 | – | 1771 | – | inactive | Cdc27 (Cell division cycle 27) | DRSC11112
– | 5777 | – | 2116 | – | inactive | CG5946 | DRSC10560
– | 12480 | – | 4564 | – | inactive | aub (aubergine) | DRSC03486
– | 19397 | – | 5885 | – | inactive | Hus1-like | DRSC12353
– | 1729 | 6003 | 887 | 2637 | inactive | CG11147 | DRSC02129
– | 4625 | – | 2509 | – | inactive | CG9698 | DRSC16539
– | 13851 | – | 7276 | – | inactive | CG42597 | DRSC03681
– | 19107 | – | 11098 | – | inactive | CG6961 + CG18259 | DRSC19799
– | 2898 | 6024 | 1192 | 2394 | inactive | CG6961 + CG18259 | DRSC20019
– | 2684 | – | 424 | – | inactive | Sse (Separase) | DRSC09746
– | 7288 | – | 2566 | – | inactive | UQCR-C1 (Ubiquinol-cytochrome c reductase core protein 1) | DRSC15508
– | 3512 | 12935 | 914 | 3175 | inactive | lncRNA:CR43242 (long non-coding RNA:CR43242) | DRSC03827
– | 11335 | – | 4828 | – | inactive | HPS1 (Hermansky-Pudlak Syndrome 1) | DRSC06195
– | 4130 | 8504 | 1448 | 3584 | inactive | CG17652 | DRSC00511
– | 7.89e5 | 8.42e5 | 3.41e5 | 2.74e5 | inactive | BomS4 (Bomanin Short 4) | DRSC22509
– | 4052 | 7559 | 708 | 1168 | inactive | woc (without children) | DRSC15928
– | 1946 | – | 513 | – | inactive | PGRP-LC (Peptidoglycan recognition protein LC) | DRSC08980
– | 7826 | – | 4420 | – | inactive | PGRP-LC (Peptidoglycan recognition protein LC) | DRSC10416
– | 3883 | – | 2261 | – | inactive | PGRP-LC (Peptidoglycan recognition protein LC) | DRSC10417
– | 6024 | – | 2160 | – | inactive | DJ-1alpha | DRSC07005
– | 1847 | 6208 | 656 | 1383 | inactive | CG14000 + bchs | DRSC02333
– | 1932 | 6624 | 876 | 3156 | inactive | Ugt307A1 (UDP-glycosyltransferase family 307 member A1) | DRSC02138
– | 10320 | – | 2083 | – | inactive | CG15594 | DRSC12280
– | 4679 | – | 1836 | – | inactive | CG5854 | DRSC15894
– | 1529 | 10915 | 1108 | 4130 | inactive | GluRIA (Glutamate receptor IA) | DRSC11176
– | 3915 | – | 1720 | – | inactive | Argk1 (Arginine kinase 1) | DRSC08959
– | 2224 | 7121 | 2124 | 4069 | inactive | Argk1 (Arginine kinase 1) | DRSC09668
– | 5152 | – | 1829 | – | inactive | Argk1 (Arginine kinase 1) | DRSC10460
– | 5.02e5 | 4.77e5 | 1.93e5 | 1.56e5 | inactive | Argk1 (Arginine kinase 1) | DRSC21558
– | 5.15e5 | 5.16e5 | 2.24e5 | 2.01e5 | inactive | Argk1 (Arginine kinase 1) | DRSC22665
– | 2022 | 8800 | 587 | 2020 | inactive | CG14013 | DRSC02344
– | 14000 | – | 3868 | – | inactive | sNPF-R (short neuropeptide F receptor) | DRSC10836
– | 7431 | – | 2887 | – | inactive | CG14244 | DRSC14739
– | 27648 | – | 13005 | – | inactive | CG4666 | DRSC18379
– | 3656 | – | 541 | – | inactive | CG15439 | DRSC00453
– | 1785 | 5622 | 787 | 1440 | inactive | CG31855 | DRSC02968
– | 19617 | – | 8018 | – | inactive | x16 (x16 splicing factor) | DRSC00960
– | 14052 | – | 4949 | – | inactive | x16 (x16 splicing factor) | DRSC03638
– | 21107 | – | 9016 | – | inactive | Tsen2 (tRNA splicing endonuclease subunit 2) | DRSC01557
– | 4137 | – | 2390 | – | inactive | CG10357 | DRSC08155
– | 27712 | – | 11424 | – | inactive | Ac13E (Adenylyl cyclase 13E) | DRSC19325
– | 17699 | – | 5927 | – | inactive | Cth (Cystathionine gamma-lyase) | DRSC07422
– | 15928 | – | 6666 | – | inactive | CG9083 + Tpc2 | DRSC04625
– | 19818 | – | 9661 | – | inactive | CG15912 | DRSC18105
– | 8667 | – | 3964 | – | inactive | kri (krishah) | DRSC10515
– | 16141 | – | 10693 | – | inactive | CG34181 | DRSC01071
– | 21272 | – | 12630 | – | inactive | CG32512 | DRSC20519
– | 14560 | – | 9067 | – | inactive | CG32512 | DRSC20551
– | 4.83e5 | 4.77e5 | 1.72e5 | 1.29e5 | inactive | CG32512 | DRSC21401
– | 3815 | – | 1498 | – | inactive | DopEcR (Dopamine/Ecdysteroid receptor) | DRSC08529
– | 16768 | – | 5018 | – | inactive | CG4995 | DRSC02801
– | 3307 | 10354 | 1061 | 3293 | inactive | SelG (Selenoprotein G) | DRSC19808
